Experimental data taken from article doi:10.1101/2023.08.25.554913 (bioRxiv, 2023).
These are yes or no findings as the source states them, for the method shown. Some results given as binding are weak or reduced against the parent protein; the word gives no strength.

Biological target: PfuAmyGT (PF0272) from Pyrococcus furiosus, wild type (Pyrococcus furiosus) (UniProt P49067)
Test: native gel or EMSA

binding: binds
B1: PfuAmyGT (PF0272) from Pyrococcus furiosus, wild type (enzyme, UniProt P49067 1-649, looked up)
chain: MGDKINFIFGIHNHQPLGNFGWVFEEAYEKCYWPFLETLEEYPNMKVAIHTSGPLIEWLQDNRPEYIDLLRSLVKRGQVEIVVAGFYEPVLASIPKEDRIEQIRLMKEWAKSIGFDARGVWLTERVWQPELVKTLKESGIDYVIVDDYHFMSAGLSKEELYWPYYTEDGGEVIAVFPIDEKLRYLIPFRPVDKVLEYLHSLIDGDESKVAVFHDDGEKFGIWPGTYEWVYEKGWLREFFDRISSDEKINLMLYTEYLEKYKPRGLVYLPIASYFEMSEWSLPAKQARLFVEFVNELKVKGIFEKYRVFVRGGIWKNFFYKYPESNYMHKRMLMVSKLVRNNPEARKYLLRAQCNDAYWHGLFGGVYLPHLRRAIWNNLIKANSYVSLGKVIRDIDYDGFEEVLIENDNFYAVFKPSYGGSLVEFSSKNRLVNYVDVLARRWEHYHGYVESQFDGVASIHELEKKIPDEIRKEVAYDKYRRFMLQDHVVPLGTTLEDFMFSRQQEIGEFPRVPYSYELLDGGIRLKREHLGIEVEKTVKLVNDGFEVEYIVNNKTGNPVLFAVELNVAVQSIMESPGVLRGKEIVVDDKYAVGKFALKFEDEMEVWKYPVKTLSQSESGWDLIQQGVSYIVPIRLEDKIRFKLKFEEASG
